# Some entries share one result that the patent states for a list of compounds.
# Test system: 293T cells
# Assay: Transfection effect of GFP mRNA LNPs in 293T cells (fluorescence microscope)
# Assay type: cell-based
# Details: LNPs of PEG-lipid/ALC-0315/DSPC/cholesterol with GFP mRNA
smiles,measurement,value
CCCCCCCCCCCCCC(=O)OCC(COCCOCCOCCOCCOCCOCCOCCOCCOCCOCCOCCOCCOCCOCCOCCOCCOCCOCCOCCOCCOCCOCCOCCOCCOCCOCCOCCOCCOCCOCCOCCOCCOCCOCCOCCOCCOCCOCCOCCOCCOCCOCCOCCOCCOCCOCCOC)OC(=O)CCCCCCCCCCCCC (stereo not shown) [compound 3],delivery effect (number of cells expressing GFP),good delivery effect
